The results in this text go back to patent US12729225B2, “Non-canonical SWI/SNF complex and uses thereof” (Dana-Farber Cancer Institute, Inc., priority 2018, dated 2026).

To fix the notation:
B1: SERPINH1 (protein, UniProt P50454 19-418, looked up)
Serpin H1: AEVKKPAAAAAPGTAEKLSPKAATLAERSAGLAFSLYQAMAKDQAVENILVSPVVVASSLGLVSLGGKATTASQAKAVLSAEQLRDEEVHAGLGELLRSLSNSTARNVTWKLGSRLYGPSSVSFADDFVRSSKQHYNCEHSKINFRDKRSALQSINEWAAQTTDGKLPEVTKDVERTDGALLVNAMFFKPHWDEKFHHKMVDNRGFMVTRSYTVGVMMMHRTGLYNYYDDEKEKLQIVEMPLAHKLSSLIILMPHHVEPLERLEKLLTKEQLKIWMGKMQKKAVAISLPKGVVEVTHDLQKHLAGLGLTEAIDKNKADLSRMSGKKDLYLASVFHATAFELDTDGNPFDQDIYGREELRSPKLFYADHPFIFLVRDTQSGSLLFIGRLVRPKGDKMRDEL
B2: TCOF1 (protein, UniProt Q13428 1-1488, looked up)
Treacle protein: MAEARKRRELLPLIYHHLLRAGYVRAAREVKEQSGQKCFLAQPVTLLDIYTHWQQTSELGRKRKAEEDAALQAKKTRVSDPISTSESSEEEEEAEAETAKATPRLASTNSSVLGADLPSSMKEKAKAETEKAGKTGNSMPHPATGKTVANLLSGKSPRKSAEPSANTTLVSETEEEGSVPAFGAAAKPGMVSAGQADSSSEDTSSSSDETDVEGKPSVKPAQVKASSVSTKESPARKAAPAPGKVGDVTPQVKGGALPPAKRAKKPEEESESSEEGSESEEEAPAGTRSQVKASEKILQVRAASAPAKGTPGKGATPAPPGKAGAVASQTKAGKPEEDSESSSEESSDSEEETPAAKALLQAKASGKTSQVGAASAPAKESPRKGAAPAPPGKTGPAVAKAQAGKREEDSQSSSEESDSEEEAPAQAKPSGKAPQVRAASAPAKESPRKGAAPAPPRKTGPAAAQVQVGKQEEDSRSSSEESDSDREALAAMNAAQVKPLGKSPQVKPASTMGMGPLGKGAGPVPPGKVGPATPSAQVGKWEEDSESSSEESSDSSDGEVPTAVAPAQEKSLGNILQAKPTSSPAKGPPQKAGPVAVQVKAEKPMDNSESSEESSDSADSEEAPAAMTAAQAKPALKIPQTKACPKKTNTTASAKVAPVRVGTQAPRKAGTATSPAGSSPAVAGGTQRPAEDSSSSEESDSEEEKTGLAVTVGQAKSVGKGLQVKAASVPVKGSLGQGTAPVLPGKTGPTVTQVKAEKQEDSESSEEESDSEEAAASPAQVKTSVKKTQAKANPAAARAPSAKGTISAPGKVVTAAAQAKQRSPSKVKPPVRNPQNSTVLARGPASVPSVGKAVATAAQAQTGPEEDSGSSEEESDSEEEAETLAQVKPSGKTHQIRAALAPAKESPRKGAAPTPPGKTGPSAAQAGKQDDSGSSSEESDSDGEAPAAVTSAQVIKPPLIFVDPNRSPAGPAATPAQAQAASTPRKARASESTARSSSSESEDEDVIPATQCLTPGIRTNVVTMPTAHPRIAPKASMAGASSSKESSRISDGKKQEGPATQVSKKNPASLPLTQAALKVLAQKASEAQPPVARTQPSSGVDSAVGTLPATSPQSTSVQAKGTNKLRKPKLPEVQQATKAPESSDDSEDSSDSSSGSEEDGEGPQGAKSAHTLGPTPSRTETLVEETAAESSEDDVVAPSQSLLSGYMTPGLTPANSQASKATPKLDSSPSVSSTLAAKDDPDGKQEAKPQQAAGMLSPKTGGKEAASGTTPQKSRKPKKGAGNPQASTLALQSNITQCLLGQPWPLNEAQVQASVVKVLTELLEQERKKVVDTTKESSRKGWESRKRKLSGDQPAARTPRSKKKKKLGAGEGGEASVSPEKTSTTSKGKAKRDKASGDVKEKKGKGSLGSQGAKDEPEEELQKGMGTVEGGDQSNPKSKKEKKKSDKRKKDKEKKEKKKKAKKASTKDSESPSQKKKKKKKKTAEQTV
B3: PYCR2 (protein, UniProt Q96C36 2-320, looked up)
Pyrroline-5-carboxylate …: SVGFIGAGQLAYALARGFTAAGILSAHKIIASSPEMNLPTVSALRKMGVNLTRSNKETVKHSDVLFLAVKPHIIPFILDEIGADVQARHIVVSCAAGVTISSVEKKLMAFQPAPKVIRCMTNTPVVVQEGATVYATGTHALVEDGQLLEQLMSSVGFCTEVEEDLIDAVTGLSGSGPAYAFMALDALADGGVKMGLPRRLAIQLGAQALLGAAKMLLDSEQHPCQLKDNVCSPGGATIHALHFLESGGFRSLLINAVEASCIRTRELQSMADQEKISPAALKKTLLDRVKLESPTVSTLTPSSPGKLLTRSLALGGKKD
B4: SFXN1 (protein, UniProt Q9H9B4 2-322, looked up)
Sideroflexin-1: SGELPPNINIKEPRWDQSTFIGRANHFFTVTDPRNILLTNEQLESARKIVHDYRQGIVPPGLTENELWRAKYIYDSAFHPDTGEKMILIGRMSAQVPMNMTITGCMMTFYRTTPAVLFWQWINQSFNAVVNYTNRSGDAPLTVNELGTAYVSATTGAVATALGLNALTKHVSPLIGRFVPFAAVAAANCINIPLMRQRELKVGIPVTDENGNRLGESANAAKQAITQVVVSRILMAAPGMAIPPFIMNTLEKKAFLKRFPWMSAPIQVGLVGFCLVFATPLCCALFPQKSSMSVTSLEAELQAKIQESHPELRRVYFNKGL
B5: HSPD1 (protein, UniProt P10809 27-573, looked up)
60 kDa heat shock protein, …: AKDVKFGADARALMLQGVDLLADAVAVTMGPKGRTVIIEQSWGSPKVTKDGVTVAKSIDLKDKYKNIGAKLVQDVANNTNEEAGDGTTTATVLARSIAKEGFEKISKGANPVEIRRGVMLAVDAVIAELKKQSKPVTTPEEIAQVATISANGDKEIGNIISDAMKKVGRKGVITVKDGKTLNDELEIIEGMKFDRGYISPYFINTSKGQKCEFQDAYVLLSEKKISSIQSIVPALEIANAHRKPLVIIAEDVDGEALSTLVLNRLKVGLQVVAVKAPGFGDNRKNQLKDMAIATGGAVFGEEGLTLNLEDVQPHDLGKVGEVIVTKDDAMLLKGKGDKAQIEKRIQEIIEQLDVTTSEYEKEKLNERLAKLSDGVAVLKVGGTSDVEVNEKKDRVTDALNATRAAVEEGIVLGGGCALLRCIPALDSLTPANEDQKIGIEIIKRTLKIPAMTIAKNAGVEGSLIVEKIMQSSSEVGYDAMAGDFVNMVEKGIIDPTKVVRTALLDAAGVASLLTTAEVVVTEIPKEEKDPGMGAMGGMGGGMGGGMF
B6: ZC3H18 (protein, UniProt Q86VM9 1-953, looked up)
Zinc finger CCCH …: MDVAESPERDPHSPEDEEQPQGLSDDDILRDSGSDQDLDGAGVRASDLEDEESAARGPSQEEEDNHSDEEDRASEPKSQDQDSEVNELSRGPTSSPCEEEGDEGEEDRTSDLRDEASSVTRELDEHELDYDEEVPEEPAPAVQEDEAEKAGAEDDEEKGEGTPREEGKAGVQSVGEKESLEAAKEKKKEDDDGEIDDGEIDDDDLEEGEVKDPSDRKVRPRPTCRFFMKGNCTWGMNCRFIHPGVNDKGNYSLITKADPFPPNGAPPLGPHPLMPANPWGGPVVDEILPPPPPEPPTESAWERGLRHAKEVLKKATIRKEQEPDFEEKRFTVTIGEDEREFDKENEVFRDWNSRIPRDVRDTVLEPYADPYYDYEIERFWRGGQYENFRVQYTETEPYHNYRERERERERENRQRERERERERDRERERRQRERERERERERDKERQRRKEEWERERAKRDEKDRQHRDRDREKEREKEKGKPKPRSPQPPSRQAEPPKKEAATTGPQVKRADEWKDPWRRSKSPKKKLGVSVSPSRARRRRKTSASSASASNSSRSSSRSSSYSGSGSSRSRSRSSSYSSYSSRSSRHSSFSGSRSRSRSFSSSPSPSPTPSPHRPSIRTKGEPAPPPGKAGEKSVKKPAPPPAPPQATKTTAPVPEPTKPGDPREARRKERPARTPPRRRTLSGSGSGSGSSYSGSSSRSRSLSVSSVSSVSSATSSSSSAHSVDSEDMYADLASPVSSASSRSPAPAQTRKEKGKSKKEDGVKEEKRKRDSSTQPPKSAKPPAGGKSSQQPSTPQQAPPGQPQQGTFVAHKEIKLTLLNKAADKGSRKRYEPSDKDRQSPPPAKRPNTSPDRGSRDRKSGGRLGSPKPERQRGQNSKAPAAPADRKRQLSPQSKSSSKVTSVPGKASDPGAASTKSGKASTLSRREELLKQLKAVEDAIARKRAKIPGKA
B7: ALDH18A1 (protein, UniProt P54886 1-795, looked up)
Delta-1-pyrroline-5-carboxylat …: MLSQVYRCGFQPFNQHLLPWVKCTTVFRSHCIQPSVIRHVRSWSNIPFITVPLSRTHGKSFAHRSELKHAKRIVVKLGSAVVTRGDECGLALGRLASIVEQVSVLQNQGREMMLVTSGAVAFGKQRLRHEILLSQSVRQALHSGQNQLKEMAIPVLEARACAAAGQSGLMALYEAMFTQYSICAAQILVTNLDFHDEQKRRNLNGTLHELLRMNIVPIVNTNDAVVPPAEPNSDLQGVNVISVKDNDSLAARLAVEMKTDLLIVLSDVEGLFDSPPGSDDAKLIDIFYPGDQQSVTFGTKSRVGMGGMEAKVKAALWALQGGTSVVIANGTHPKVSGHVITDIVEGKKVGTFFSEVKPAGPTVEQQGEMARSGGRMLATLEPEQRAEIIHHLADLLTDQRDEILLANKKDLEEAEGRLAAPLLKRLSLSTSKLNSLAIGLRQIAASSQDSVGRVLRRTRIAKNLELEQVTVPIGVLLVIFESRPDCLPQVAALAIASGNGLLLKGGKEAAHSNRILHLLTQEALSIHGVKEAVQLVNTREEVEDLCRLDKMIDLIIPRGSSQLVRDIQKAAKGIPVMGHSEGICHMYVDSEASVDKVTRLVRDSKCEYPAACNALETLLIHRDLLRTPLFDQIIDMLRVEQVKIHAGPKFASYLTFSPSEVKSLRTEYGDLELCIEVVDNVQDAIDHIHKYGSSHTDVIVTEDENTAEFFLQHVDSACVFWNASTRFSDGYRFGLGAEVGISTSRIHARGPVGLEGLLTTKWLLRGKDHVVSDFSEHGSLKYLHENLPIPQRNTN
B8: L2HGDH (protein, UniProt Q9H9P8 52-463, looked up)
L-2-hydroxyglutarate …: VIVGGGIVGLASARALILRHPSLSIGVLEKEKDLAVHQTGHNSGVIHSGIYYKPESLKAKLCVQGAALLYEYCQQKGISYKQCGKLIVAVEQEEIPRLQALYEKGLQNGVPGLRLIQQEDIKKKEPYCRGLMAIDCPHTGIVDYRQVALSFAQDFQEAGGSVLTNFEVKGIEMAKESPSRSIDGMQYPIVIKNTKGEEIRCQYVVTCAGLYSDRISELSGCTPDPRIVPFRGDYLLLKPEKCYLVKGNIYPVPDSRFPFLGVHFTPRMDGSIWLGPNAVLAFKREGYRPFDFSATDVMDIIINSGLIKLASQNFSYGVTEMYKACFLGATVKYLQKFIPEITISDILRGPAGVRAQALDRDGNLVEDFVFDAGVGDIGNRILHVRNAPSPAATSSIAISGMIADEVQQRFEL
B9: HNRNPF (protein, UniProt P52597 1-415, looked up)
Heterogeneous nuclear …: MMLGPEGGEGFVVKLRGLPWSCSVEDVQNFLSDCTIHDGAAGVHFIYTREGRQSGEAFVELGSEDDVKMALKKDRESMGHRYIEVFKSHRTEMDWVLKHSGPNSADSANDGFVRLRGLPFGCTKEEIVQFFSGLEIVPNGITLPVDPEGKITGEAFVQFASQELAEKALGKHKERIGHRYIEVFKSSQEEVRSYSDPPLKFMSVQRPGPYDRPGTARRYIGIVKQAGLERMRPGAYSTGYGGYEEYSGLSDGYGFTTDLFGRDLSYCLSGMYDHRYGDSEFTVQSTTGHCVHMRGLPYKATENDIYNFFSPLNPVRVHIEIGPDGRVTGEADVEFATHEEAVAAMSKDRANMQHRYIELFLNSTTGASNGAYSSQVMQGMGVSAAQATYSGLESQSVSGCYGAGYSGQNSMGGYD

One data set relates to mSWI/SNF complexes. Description: mSWI/SNF complex purification with HA-tagged baits and mass spectrometry (peptide counts). Set-up: species or system human. The following applies: 293_HA-BRD7: HA-BRD7 bait purification, total peptide count per co-purified protein.
For the molecule B1, the Total came out at 6.

In the case of B2, the Total is given as 6.

In turn, B3 registered a Total of 6.

Molecule B4 had a Total of 6.

B5: the Total came out at 42.

In turn, B6 returned a Total of 6.

Molecule B7 yielded a Total of 6.

B8: the Total was 6.

For B9, the Total came to 6.

Still in this data set, the particulars now being: 293_HA-BRD7: HA-BRD7 bait purification, unique peptide count per co-purified protein.
With B1, the Unique stood at 6.

For B2, the Unique is reported as 6.

B3 showed a Unique of 6.

B4 displayed a Unique of 6.

Molecule B5 had a Unique of 34.

B6 returned a Unique of 6.

B7 had a Unique of 6.

B8 gave a Unique of 6.

With B9, the Unique was found to be 6.
